# Experimental data from the supplement of paper PMC10849652.
# The chains behind the UniProt entries cited, without tags or fusion partners. Where a name states a change or a piece, a line headed by the entry shows the natural chain unless it says otherwise.
# UniProt Q8WUY8: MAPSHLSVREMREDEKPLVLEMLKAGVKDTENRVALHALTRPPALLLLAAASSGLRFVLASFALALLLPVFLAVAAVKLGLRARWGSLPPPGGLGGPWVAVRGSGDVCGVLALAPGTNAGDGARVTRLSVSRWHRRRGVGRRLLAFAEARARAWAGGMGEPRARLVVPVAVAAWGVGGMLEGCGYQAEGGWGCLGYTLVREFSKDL
# UniProt P51970, whole entry, looked up: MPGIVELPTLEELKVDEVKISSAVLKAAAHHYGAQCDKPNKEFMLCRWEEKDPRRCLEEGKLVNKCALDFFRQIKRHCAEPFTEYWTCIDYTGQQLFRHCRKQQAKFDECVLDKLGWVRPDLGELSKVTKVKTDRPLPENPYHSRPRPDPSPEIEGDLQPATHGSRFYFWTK
# UniProt Q8NHV4, whole entry, looked up: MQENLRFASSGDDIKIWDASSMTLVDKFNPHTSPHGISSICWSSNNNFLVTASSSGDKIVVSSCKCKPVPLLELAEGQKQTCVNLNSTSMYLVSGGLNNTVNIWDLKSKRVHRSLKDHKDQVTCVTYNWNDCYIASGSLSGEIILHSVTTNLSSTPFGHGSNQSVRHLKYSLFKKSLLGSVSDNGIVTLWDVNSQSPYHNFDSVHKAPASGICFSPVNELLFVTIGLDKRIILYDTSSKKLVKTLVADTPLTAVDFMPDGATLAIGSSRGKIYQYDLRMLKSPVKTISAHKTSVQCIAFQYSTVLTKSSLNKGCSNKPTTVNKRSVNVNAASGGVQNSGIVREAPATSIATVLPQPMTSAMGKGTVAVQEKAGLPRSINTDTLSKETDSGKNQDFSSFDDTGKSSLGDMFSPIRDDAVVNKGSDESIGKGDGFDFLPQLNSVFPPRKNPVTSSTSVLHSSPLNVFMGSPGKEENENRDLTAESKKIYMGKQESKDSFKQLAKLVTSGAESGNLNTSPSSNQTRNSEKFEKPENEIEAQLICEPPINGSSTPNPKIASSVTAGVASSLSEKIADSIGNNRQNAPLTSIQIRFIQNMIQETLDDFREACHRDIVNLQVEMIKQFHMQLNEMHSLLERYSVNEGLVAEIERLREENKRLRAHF
# UniProt P56181: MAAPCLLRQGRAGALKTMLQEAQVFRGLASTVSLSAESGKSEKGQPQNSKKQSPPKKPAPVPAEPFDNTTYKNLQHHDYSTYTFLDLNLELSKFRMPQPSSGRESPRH
# UniProt Q330K2: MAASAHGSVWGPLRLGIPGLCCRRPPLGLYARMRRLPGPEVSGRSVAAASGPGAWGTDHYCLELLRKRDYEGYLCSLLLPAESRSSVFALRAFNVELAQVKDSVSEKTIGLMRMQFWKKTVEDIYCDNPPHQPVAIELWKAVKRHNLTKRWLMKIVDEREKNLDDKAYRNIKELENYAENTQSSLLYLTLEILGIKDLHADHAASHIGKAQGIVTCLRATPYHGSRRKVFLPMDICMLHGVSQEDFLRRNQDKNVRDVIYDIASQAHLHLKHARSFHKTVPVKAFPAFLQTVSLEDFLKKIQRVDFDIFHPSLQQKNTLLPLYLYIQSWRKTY
# NBDY, A0A0U1RRE5, UniProt A0A0U1RRE5, whole entry, looked up: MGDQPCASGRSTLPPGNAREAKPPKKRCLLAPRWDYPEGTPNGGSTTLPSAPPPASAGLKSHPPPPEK
# UniProt O43639, whole entry, looked up: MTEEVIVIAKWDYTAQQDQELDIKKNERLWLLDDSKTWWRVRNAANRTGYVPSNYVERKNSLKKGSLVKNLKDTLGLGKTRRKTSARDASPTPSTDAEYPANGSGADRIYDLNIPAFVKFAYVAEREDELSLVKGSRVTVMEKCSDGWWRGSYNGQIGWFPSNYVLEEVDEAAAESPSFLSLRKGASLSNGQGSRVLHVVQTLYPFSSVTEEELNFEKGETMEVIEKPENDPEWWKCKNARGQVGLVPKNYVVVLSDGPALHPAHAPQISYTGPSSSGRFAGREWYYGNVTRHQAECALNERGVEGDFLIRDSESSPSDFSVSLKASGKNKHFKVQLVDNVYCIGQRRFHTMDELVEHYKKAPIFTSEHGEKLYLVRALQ
# UniProt Q5VVJ2: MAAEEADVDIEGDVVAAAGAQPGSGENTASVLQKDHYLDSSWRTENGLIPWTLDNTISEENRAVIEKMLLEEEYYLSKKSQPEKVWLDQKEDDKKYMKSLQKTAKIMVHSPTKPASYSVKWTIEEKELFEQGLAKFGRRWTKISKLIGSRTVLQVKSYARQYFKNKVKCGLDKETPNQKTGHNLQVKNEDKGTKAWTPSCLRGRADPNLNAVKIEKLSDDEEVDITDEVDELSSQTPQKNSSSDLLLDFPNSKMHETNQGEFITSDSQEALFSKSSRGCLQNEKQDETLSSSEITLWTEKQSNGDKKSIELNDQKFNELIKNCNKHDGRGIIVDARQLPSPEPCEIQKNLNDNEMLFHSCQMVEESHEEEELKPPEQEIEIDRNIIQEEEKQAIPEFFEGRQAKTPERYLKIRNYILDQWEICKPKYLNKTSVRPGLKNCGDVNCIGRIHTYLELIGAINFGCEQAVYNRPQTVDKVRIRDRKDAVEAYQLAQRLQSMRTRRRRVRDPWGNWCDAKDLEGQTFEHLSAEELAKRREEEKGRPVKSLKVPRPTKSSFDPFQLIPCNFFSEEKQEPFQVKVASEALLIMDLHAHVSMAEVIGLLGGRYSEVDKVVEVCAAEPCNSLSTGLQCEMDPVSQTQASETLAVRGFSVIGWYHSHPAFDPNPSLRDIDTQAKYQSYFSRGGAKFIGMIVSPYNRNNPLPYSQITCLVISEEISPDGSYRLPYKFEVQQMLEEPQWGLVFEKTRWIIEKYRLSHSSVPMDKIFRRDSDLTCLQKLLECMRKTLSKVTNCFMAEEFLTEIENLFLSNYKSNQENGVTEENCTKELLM
# UniProt Q9Y6Q9, whole entry, looked up: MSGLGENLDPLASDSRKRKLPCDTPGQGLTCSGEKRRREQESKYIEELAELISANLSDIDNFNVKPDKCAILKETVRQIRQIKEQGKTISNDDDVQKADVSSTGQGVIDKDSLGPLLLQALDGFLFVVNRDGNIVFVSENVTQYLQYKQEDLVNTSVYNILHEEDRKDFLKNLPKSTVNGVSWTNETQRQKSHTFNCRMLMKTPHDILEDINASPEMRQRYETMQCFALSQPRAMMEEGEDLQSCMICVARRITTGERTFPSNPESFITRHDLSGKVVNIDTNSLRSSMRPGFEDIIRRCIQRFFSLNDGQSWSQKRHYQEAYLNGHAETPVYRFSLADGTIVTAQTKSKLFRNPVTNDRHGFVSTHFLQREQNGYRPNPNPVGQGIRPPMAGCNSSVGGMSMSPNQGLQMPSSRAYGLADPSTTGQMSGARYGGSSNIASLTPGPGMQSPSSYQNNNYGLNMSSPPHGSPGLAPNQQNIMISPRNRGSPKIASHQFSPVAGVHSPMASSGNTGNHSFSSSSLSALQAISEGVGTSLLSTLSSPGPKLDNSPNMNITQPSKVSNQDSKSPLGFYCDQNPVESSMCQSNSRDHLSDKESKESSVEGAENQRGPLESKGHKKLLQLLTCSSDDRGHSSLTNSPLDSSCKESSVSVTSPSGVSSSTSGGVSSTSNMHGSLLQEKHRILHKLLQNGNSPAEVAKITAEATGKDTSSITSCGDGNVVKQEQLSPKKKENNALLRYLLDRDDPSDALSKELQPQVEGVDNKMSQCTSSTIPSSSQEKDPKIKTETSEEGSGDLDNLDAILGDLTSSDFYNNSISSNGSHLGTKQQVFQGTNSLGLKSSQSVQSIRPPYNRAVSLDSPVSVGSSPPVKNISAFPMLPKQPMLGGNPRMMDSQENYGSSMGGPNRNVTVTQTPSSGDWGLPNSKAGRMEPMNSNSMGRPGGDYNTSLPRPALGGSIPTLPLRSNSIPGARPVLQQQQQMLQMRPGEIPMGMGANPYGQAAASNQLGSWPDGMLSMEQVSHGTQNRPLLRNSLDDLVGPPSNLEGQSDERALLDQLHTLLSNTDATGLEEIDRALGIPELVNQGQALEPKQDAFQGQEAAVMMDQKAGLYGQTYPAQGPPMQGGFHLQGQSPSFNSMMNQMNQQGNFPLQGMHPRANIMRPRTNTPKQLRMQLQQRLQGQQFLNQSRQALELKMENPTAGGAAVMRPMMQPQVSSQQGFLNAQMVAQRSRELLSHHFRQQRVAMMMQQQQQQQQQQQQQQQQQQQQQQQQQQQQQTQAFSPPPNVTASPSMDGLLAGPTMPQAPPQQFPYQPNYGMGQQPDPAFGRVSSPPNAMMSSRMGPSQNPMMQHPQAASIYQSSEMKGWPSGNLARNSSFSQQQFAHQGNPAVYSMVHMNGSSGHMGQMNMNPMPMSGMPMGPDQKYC
# NA, A0A494C071, UniProt A0A494C071, whole entry, looked up: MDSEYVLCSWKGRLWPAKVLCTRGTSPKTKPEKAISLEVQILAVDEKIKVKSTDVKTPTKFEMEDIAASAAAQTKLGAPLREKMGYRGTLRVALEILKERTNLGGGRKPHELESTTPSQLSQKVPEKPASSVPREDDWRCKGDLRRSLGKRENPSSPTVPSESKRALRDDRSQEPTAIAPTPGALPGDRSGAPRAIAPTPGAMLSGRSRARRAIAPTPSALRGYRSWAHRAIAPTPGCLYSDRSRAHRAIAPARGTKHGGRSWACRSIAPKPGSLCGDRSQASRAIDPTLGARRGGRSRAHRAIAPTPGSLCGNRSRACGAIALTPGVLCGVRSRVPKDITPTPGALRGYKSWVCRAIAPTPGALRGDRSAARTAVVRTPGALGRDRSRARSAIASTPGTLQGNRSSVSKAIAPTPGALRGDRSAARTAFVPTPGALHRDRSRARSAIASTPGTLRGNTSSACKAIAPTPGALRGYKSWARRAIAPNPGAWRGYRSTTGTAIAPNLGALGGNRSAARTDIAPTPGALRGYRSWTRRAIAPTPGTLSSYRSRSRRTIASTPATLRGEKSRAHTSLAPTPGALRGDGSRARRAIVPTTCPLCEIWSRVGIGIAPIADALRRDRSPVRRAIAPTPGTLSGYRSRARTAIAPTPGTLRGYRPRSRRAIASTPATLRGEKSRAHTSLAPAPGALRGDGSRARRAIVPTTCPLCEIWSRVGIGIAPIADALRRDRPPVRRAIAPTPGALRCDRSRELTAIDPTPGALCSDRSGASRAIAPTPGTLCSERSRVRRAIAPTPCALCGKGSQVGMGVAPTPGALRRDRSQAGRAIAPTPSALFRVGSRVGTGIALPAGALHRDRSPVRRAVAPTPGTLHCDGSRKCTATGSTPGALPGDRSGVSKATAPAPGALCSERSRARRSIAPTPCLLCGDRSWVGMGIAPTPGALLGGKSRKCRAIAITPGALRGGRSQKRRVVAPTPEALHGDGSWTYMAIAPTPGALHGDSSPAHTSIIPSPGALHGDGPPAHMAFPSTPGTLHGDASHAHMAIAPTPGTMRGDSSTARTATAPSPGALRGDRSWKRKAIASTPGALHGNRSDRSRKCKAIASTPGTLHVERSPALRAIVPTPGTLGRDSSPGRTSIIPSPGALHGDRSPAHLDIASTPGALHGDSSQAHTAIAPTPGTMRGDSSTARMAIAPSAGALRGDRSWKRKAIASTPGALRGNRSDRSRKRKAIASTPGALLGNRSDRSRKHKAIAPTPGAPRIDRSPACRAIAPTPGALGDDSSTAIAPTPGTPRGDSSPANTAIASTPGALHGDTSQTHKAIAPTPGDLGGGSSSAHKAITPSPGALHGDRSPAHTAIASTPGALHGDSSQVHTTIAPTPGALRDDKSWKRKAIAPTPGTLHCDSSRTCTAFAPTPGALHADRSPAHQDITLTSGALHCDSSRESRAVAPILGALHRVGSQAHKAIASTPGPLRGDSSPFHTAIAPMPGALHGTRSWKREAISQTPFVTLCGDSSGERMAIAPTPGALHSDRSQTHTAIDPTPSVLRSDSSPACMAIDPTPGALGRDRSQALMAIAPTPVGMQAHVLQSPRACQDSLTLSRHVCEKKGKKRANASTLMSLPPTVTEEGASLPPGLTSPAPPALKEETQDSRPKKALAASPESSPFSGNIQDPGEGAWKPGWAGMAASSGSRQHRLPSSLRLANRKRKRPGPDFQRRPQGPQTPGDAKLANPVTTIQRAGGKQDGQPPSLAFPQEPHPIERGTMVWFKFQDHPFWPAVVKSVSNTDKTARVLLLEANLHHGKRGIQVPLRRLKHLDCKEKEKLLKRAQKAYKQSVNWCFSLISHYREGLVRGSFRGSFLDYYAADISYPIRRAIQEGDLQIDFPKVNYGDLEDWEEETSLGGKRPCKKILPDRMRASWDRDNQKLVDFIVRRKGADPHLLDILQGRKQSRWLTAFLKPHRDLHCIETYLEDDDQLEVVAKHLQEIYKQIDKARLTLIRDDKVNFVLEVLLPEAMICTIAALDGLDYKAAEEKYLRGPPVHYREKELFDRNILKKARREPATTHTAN
# UniProt Q9NV92: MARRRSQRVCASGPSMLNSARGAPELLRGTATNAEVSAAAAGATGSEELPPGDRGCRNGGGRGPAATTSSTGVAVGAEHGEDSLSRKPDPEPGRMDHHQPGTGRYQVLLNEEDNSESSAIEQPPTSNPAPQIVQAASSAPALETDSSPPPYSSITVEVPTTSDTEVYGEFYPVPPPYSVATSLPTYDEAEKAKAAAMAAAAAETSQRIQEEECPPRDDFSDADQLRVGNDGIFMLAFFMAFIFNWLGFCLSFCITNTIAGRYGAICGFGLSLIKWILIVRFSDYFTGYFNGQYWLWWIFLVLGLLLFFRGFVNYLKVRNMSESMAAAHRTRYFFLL
# The other results are listed elsewhere or left out.
# Legend:
# Assay in all cases: log2 fold change, soluble protein after heating vs DMSO (PISA); higher = thermal stabilisation; K562 cells, 10 uM, 30 min; active = over 0.2 and 3.5 SD of the protein, either way, in both replicates (recomputed)
# [1] = compound: NC(=O)Nc1cc(-c2cccc(F)c2)sc1C(=O)N[C@H]1CCCNC1
# Summary of the method: (§1)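 K562 cells at 2×10^6 cells/mL were given 10 μM compound for 30 min. Aliquots then went through 3 min of heating across 48°C-58°C, were pooled, and were extracted in PBS with 0.5% NP-40 at 4°C, and the supernatant after 21,000xg for 90 min was quantified by TMTpro 16plex LC-MS/MS with channel sums equalised. Thermal stability relative to control samples, from duplicates, is given as log2 fold change.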
# [2] = compound: NC(=O)c1cnc(N[C@@H]2CCCC[C@@H]2N)nc1Nc1cccc(-n2nccn2)c1
# Summary of the method: as §1
# [3] = compound: NC1(c2ccc(-c3nc4ccn5c(=O)[nH]nc5c4cc3-c3ccccc3)cc2)CCC1
# Summary of the method: as §1
# [4] = compound: NCC(=O)Nc1ccc(-n2nc(C(F)(F)F)cc2-c2ccc3c(ccc4ccccc43)c2)cc1
# Summary of the method: as §1
# entinostat = compound: Nc1ccccc1NC(=O)c1ccc(CNC(=O)OCc2cccnc2)cc1 [entinostat]
# Summary of the method: as §1
# citarinostat = compound: O=C(CCCCCCNC(=O)c1cnc(N(c2ccccc2)c2ccccc2Cl)nc1)NO [citarinostat]
# Summary of the method: as §1
# silmitasertib = compound: O=C(O)c1ccc2c(c1)nc(Nc1cccc(Cl)c1)c1ccncc12 [silmitasertib]
# Summary of the method: as §1
# [5] = compound: O=C1NC(=O)C(c2cnc3ccccn23)=C1c1cn2c3c(cc(F)cc13)CN(C(=O)N1CCCCC1)CC2
# Summary of the method: as §1
# [6] = compound: c1cc(OCCN2CCCCC2)cc(-c2n[nH]c3ccc(-c4nnc[nH]4)cc23)c1
# Summary of the method: as §1
# vorinostat = compound: O=C(CCCCCCC(=O)Nc1ccccc1)NO [vorinostat]
# Summary of the method: as §1
Target,log2 fold change [1],log2 fold change [2],log2 fold change [3],log2 fold change [4],log2 fold change (entinostat),log2 fold change (citarinostat),log2 fold change (silmitasertib),log2 fold change [5],log2 fold change [6],log2 fold change (vorinostat)
NAT14 (UniProt Q8WUY8),inactive: 0.038,inactive: -0.135,inactive: -0.108,inactive: -0.33,inactive: -0.033,inactive: 0.04,inactive: 0,inactive: -0.037,inactive: -0.108,–
NDUFA8 (UniProt P51970),inactive: -0.052,inactive: -0.025,inactive: -0.065,inactive: -0.036,inactive: 0.011,inactive: 0.024,inactive: -0.013,inactive: -0.045,inactive: -0.044,inactive: 0.019
NDUFA12 (UniProt Q9UI09),inactive: -0.018,inactive: -0.038,inactive: -0.227,inactive: -0.061,inactive: 0.04,inactive: 0.07,inactive: -0.052,inactive: 0.004,inactive: -0.033,inactive: 0.077
NDUFV1 (UniProt E9PJL9),inactive: -0.032,inactive: -0.23,inactive: -0.07,inactive: -0.048,inactive: -0.123,–,inactive: 0.05,–,–,–
NEDD1 isoform 3 (UniProt Q8NHV4),inactive: 0.004,inactive: -0.012,inactive: -0.037,inactive: -0.012,inactive: 0.011,inactive: -0.034,inactive: -0.025,inactive: -0.015,inactive: 0.025,inactive: 0.075
NAMPT (UniProt P43490),inactive: 0.011,inactive: -0.013,inactive: 0.036,inactive: 0.007,inactive: -0.012,inactive: 0.014,inactive: -0.019,inactive: -0.034,inactive: -0.014,inactive: -0.017
NDUFV1 (UniProt P49821),inactive: -0.028,inactive: -0.038,inactive: -0.038,inactive: -0.022,inactive: -0.01,inactive: 0.042,inactive: -0.028,inactive: -0.126,inactive: -0.031,inactive: 0.066
NEBL (UniProt O76041),inactive: -0.015,inactive: -0.069,inactive: 0.055,inactive: -0.001,inactive: -0.001,inactive: -0.022,inactive: -0.02,inactive: -0.056,inactive: -0.097,–
NAA11 (UniProt Q9BSU3),inactive: 0.139,inactive: -0.048,inactive: -0.072,inactive: 0.167,active: 0.375,inactive: -0.05,inactive: -0.001,inactive: -0.064,inactive: -0.022,–
NDUFA9 (UniProt Q16795),inactive: -0.025,inactive: -0.089,inactive: -0.112,inactive: -0.091,inactive: 0.039,inactive: 0.037,inactive: -0.016,inactive: -0.104,inactive: 0.017,inactive: 0.065
MZT2B (UniProt Q6NZ67),inactive: 0.076,inactive: -0.054,inactive: 0.018,inactive: 0.053,inactive: 0.027,–,inactive: 0.028,inactive: -0.099,–,inactive: 0.017
NAGA (UniProt P17050),inactive: 0.036,inactive: 0.016,inactive: -0.153,inactive: 0.029,inactive: -0.055,inactive: 0.104,inactive: -0.018,inactive: -0.036,inactive: -0.044,inactive: 0
NACA4P (UniProt Q9BZK3),inactive: 0.19,inactive: 0.018,inactive: -0.057,inactive: -0.032,inactive: 0.03,inactive: -0.025,inactive: 0.028,inactive: 0.116,inactive: 0.064,–
NDUFV3 (UniProt P56181),inactive: 0.053,inactive: 0.036,inactive: 0.019,inactive: -0.137,inactive: 0.012,inactive: 0.059,inactive: -0.013,inactive: 0.021,inactive: -0.001,–
NDUFAF6 (UniProt Q330K2),inactive: 0,inactive: -0.152,inactive: -0.291,inactive: 0,inactive: 0.026,inactive: 0.086,inactive: -0.02,inactive: -0.065,inactive: -0.031,inactive: 0.122
NBEAL2 (UniProt Q6ZNJ1),–,–,inactive: -0.003,–,–,inactive: -0.15,inactive: -0.034,–,inactive: -0.006,inactive: 0.064
NEB isoform 3 (UniProt P20929),–,inactive: -0.173,–,inactive: 0.019,–,inactive: 0.123,–,inactive: 0.148,inactive: -0.001,inactive: 0

# Looked up above.
# NEB isoform 3 (UniProt P20929) | log2 fold change [4]: inactive: 0.019
# NDUFAF6 (UniProt Q330K2) | log2 fold change (citarinostat): inactive: 0.086

# Next part.

Target,log2 fold change [1],log2 fold change [2],log2 fold change [3],log2 fold change [4],log2 fold change (entinostat),log2 fold change (citarinostat),log2 fold change (silmitasertib),log2 fold change [5],log2 fold change [6],log2 fold change (vorinostat)
"NBDY, A0A0U1RRE5",–,inactive: 0.032,inactive: 0.085,–,–,–,inactive: -0.024,inactive: -0.173,–,inactive: -0.087
NAAA (UniProt Q02083),inactive: -0.041,–,inactive: -0.457,–,inactive: 0.088,inactive: 0.233,inactive: -0.262,–,inactive: -0.218,inactive: -0.12
NCK2 (UniProt O43639),inactive: -0.188,inactive: -0.18,–,inactive: -0.178,inactive: 0.191,inactive: 0.003,–,inactive: 0.068,inactive: -0.014,inactive: 0.105
NAA40 (UniProt Q86UY6),–,–,–,inactive: 0.004,–,inactive: -0.151,–,inactive: 0.245,inactive: -0.058,inactive: -0.256
MYSM1 (UniProt Q5VVJ2),inactive: -0.205,–,–,–,inactive: 0.237,inactive: 0.564,–,–,inactive: 0.174,–
NCOA3 (UniProt Q9Y6Q9),inactive: -0.072,–,–,inactive: -0.008,inactive: 0.129,inactive: -0.249,–,inactive: 0.208,inactive: 0.224,inactive: -0.035
"NA, A0A2R8Y3M9",inactive: -0.104,inactive: -0.17,–,–,inactive: -0.011,–,–,–,–,inactive: 0.372
NAP1L4 (UniProt C9J6D1),inactive: 0.035,inactive: 0.078,–,–,inactive: 0.093,–,–,–,–,–
NA (UniProt B2RBV5),inactive: 0.06,–,inactive: -0.055,–,inactive: 0.029,inactive: 0.12,inactive: 0.056,inactive: -0.001,inactive: -0.014,inactive: 0.045
NCOA4 isoform 4 (UniProt Q13772),–,–,–,–,–,–,–,–,–,inactive: 0.342
NCAPH2 isoform 4 (UniProt Q6IBW4),–,inactive: 0.099,inactive: 0.216,–,–,inactive: 0.118,inactive: 0.067,inactive: -0.074,inactive: -0.033,–
NCOA5 (UniProt Q9HCD5),inactive: -0.101,–,–,–,inactive: -0.011,–,–,–,–,inactive: 0.023
NAMPT (UniProt C9JF35),inactive: -0.094,–,inactive: -0.2,–,inactive: -0.082,inactive: 0.033,inactive: 0.06,inactive: 0.081,inactive: -0.053,–
"NA, A0A494C071",–,inactive: -0.484,inactive: -0.407,inactive: -0.153,–,inactive: 0.023,inactive: 0.212,inactive: -0.022,inactive: -0.086,inactive: 0
NDUFA7 (UniProt M0R0N0),inactive: -0.307,–,–,inactive: -0.344,inactive: -0.063,–,–,–,–,–
NDFIP2 (UniProt Q9NV92),inactive: -0.284,–,inactive: 0.101,–,inactive: -0.354,–,inactive: 0.049,–,–,–
